Data on 1 molecule can be found in the supplement of paper PMC8728848.

This is one part of the list.

Common to all, as to test: glycan array binding signal (z-score within array); higher = stronger binding
Holding throughout (details): glycan notation: IUPAC condensed, linker removed

The target in test [1] is GlcNAc(b1-3)Gal(b1-4)GlcNAc(b1-3)Gal(b1-4)GlcNAc(b1-3)Gal(b1-4)GlcNAc(b1-2)[GlcNAc(b1-3)Gal(b1-4)GlcNAc(b1-3)Gal(b1-4)GlcNAc(b1-3)Gal(b1-4)GlcNAc(b1-6)]Man(a1-6)[GlcNAc(b1-3)Gal(b1-4)GlcNAc(b1-3)Gal(b1-4)GlcNAc(b1-3)Gal(b1-4)GlcNAc(b1-2)Man(a1-3)]Man(b1-4)GlcNAc(b1-4)[Fuc(a1-6)]GlcNAc. The method, boiled down: (§1)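 Columns mapping to the same glycan were averaged after glycan names were converted to IUPAC-condensed notation. The data come from 3228 arrays in the Consortium for Functional Glycomics database, limited to those with an available protein sequence. Binding is reported as a within-array Z-score averaged across arrays of one protein sequence and across linkers.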

In test [2] the target is GlcNAc(b1-3)Gal(b1-4)GlcNAc(b1-3)Gal(b1-4)GlcNAc(b1-3)Gal(b1-4)GlcNAc(b1-3)Gal(b1-4)GlcNAc(b1-2)Man(a1-3)[GlcNAc(b1-3)Gal(b1-4)GlcNAc(b1-3)Gal(b1-4)GlcNAc(b1-3)Gal(b1-4)GlcNAc(b1-3)Gal(b1-4)GlcNAc(b1-2)Man(a1-6)]Man(b1-4)GlcNAc(b1-4)GlcNAc. Put shortly: as §1
Test [3] deals with GlcNAc(b1-3)Gal(b1-4)GlcNAc(b1-3)Gal(b1-4)GlcNAc(b1-3)Gal(b1-4)GlcNAc(b1-3)Gal(b1-4)GlcNAc(b1-2)Man(a1-3)[GlcNAc(b1-3)Gal(b1-4)GlcNAc(b1-3)Gal(b1-4)GlcNAc(b1-3)Gal(b1-4)GlcNAc(b1-3)Gal(b1-4)GlcNAc(b1-2)Man(a1-6)]Man(b1-4)GlcNAc(b1-4)[Fuc(a1-6)]GlcNAc. The method, boiled down:
as §1

The target in test [4] is GlcNAc(b1-3)Gal(b1-4)GlcNAc(b1-3)Gal(b1-4)GlcNAc(b1-3)Gal(b1-4)GlcNAc(b1-3)Gal(b1-4)GlcNAc(b1-2)[GlcNAc(b1-3)Gal(b1-4)GlcNAc(b1-3)Gal(b1-4)GlcNAc(b1-3)Gal(b1-4)GlcNAc(b1-3)Gal(b1-4)GlcNAc(b1-6)]Man(a1-6)[GlcNAc(b1-3)Gal(b1-4)GlcNAc(b1-3)Gal(b1-4)GlcNAc(b1-3)Gal(b1-4)GlcNAc(b1-3)Gal(b1-4)GlcNAc(b1-2)Man(a1-3)]Man(b1-4)GlcNAc(b1-4)[Fuc(a1-6)]GlcNAc. Put shortly:
as §1

The target of test [5] is GlcNAc(b1-3)Gal(b1-4)GlcNAc(b1-3)Gal(b1-4)GlcNAc(b1-3)GalNAc. The method, boiled down: as §1
Test [6] concerns the target GlcNAc(b1-3)Gal(b1-4)GlcNAc(b1-3)GalNAc. The method, boiled down:
as §1

For test [7], the target named is GlcNAc(b1-3)Gal(b1-4)GlcNAc(b1-3)[GlcNAc(b1-3)Gal(b1-4)GlcNAc(b1-3)]GalNAc. Put shortly:
as §1

Test [8] deals with GlcNAc(b1-3)Gal(b1-4)GlcNAc(b1-6)[Gal(b1-3)]GalNAc. The method, boiled down: as §1
Test [9] deals with GlcNAc(b1-3)Gal(b1-4)GlcNAc(b1-6)[GlcNAc(b1-3)Gal(b1-3)]GalNAc. The method, boiled down:
as §1

For test [10], the target named is GlcNAc(b1-3)Gal(b1-4)GlcNAc(b1-6)[GlcNAc(b1-3)]Gal(b1-4)GlcNAc. Put shortly:
as §1

In a further test the target is GlcNAc(b1-3)GalNAc. Put shortly:
as §1

The next test addresses GlcNAc(b1-3)Man. Put shortly:
as §1

For test [11], the target named is GlcNAc(b1-3)[GlcNAc(b1-4)][GlcNAc(b1-6)]GlcNAc. Put shortly: as §1
Test [12] concerns the target GlcNAc(b1-3)[GlcNAc(b1-6)]Gal(b1-4)GlcNAc. The method, boiled down:
as §1

For test [13], the target named is GlcNAc(b1-3)[GlcNAc(b1-6)]GalNAc. Put shortly:
as §1

Test [14] has as its target GlcNAc(b1-4)Gal(b1-4)GlcNAc. Put shortly: as §1
Another test addresses GlcNAc(b1-4)GlcNAc. Put shortly: as §1
The target in test [15] is GlcNAc(b1-4)GlcNAc(b1-4)GlcNAc. The method, boiled down:
as §1

Test [16] concerns the target GlcNAc(b1-4)GlcNAc(b1-4)GlcNAc(b1-4)GlcNAc(b1-4)GlcNAc. Put shortly:
as §1

B1: Aap lectin (Staphylococcus epidermidis) (protein)
chain: VNLNYSSPFMSLLSMPADSSSNNTKNTIDIPPTTVKGRDNYDFYGRVDIESNPTDLNATNLTRYNYGQPPGTTTAGAVQFKNQVSFDKDFDFNIRVANNRQSNTTGADGWGFMFSKKDGDDFLKNGGILREKGTPSAAGFRIDTGYYNNDPLDKIQKQAGQGYRGYGTFVKNDSQGNTSKVGSGTPSTDFLNYADNTTNDLDGKFHGQKLNNVNLKYNASNQTFTATYAGKTWTATLSELGLSPTDSYNFLVTSS
As to B1, the “glycan array binding signal (z-score)” value in test [1] is -0.306; in test [2], 0.789; in test [3] it was 2.03; in [4], 1.2; in test [5] it was 0.235; in test [6], 0.571. The “glycan array binding signal (z-score)” value in [7] is 1.62; in test [8], -0.757; in test [9] it was -0.968; in test [10] it was -0.401; with GlcNAc(b1-3)GalNAc, -0.693; with GlcNAc(b1-3)Man, -0.471. Besides, the “glycan array binding signal (z-score)” value in test [11] is -0.92; in [12], -0.895; in test [13], 0.321; in test [14], -0.856; with GlcNAc(b1-4)GlcNAc it was 0.252; in test [15] it was -0.883. The “glycan array binding signal (z-score)” value in [16] is -0.856.
